Source: publication PMC10700218
Results are given in words; binding and its absence hold for the method and conditions named. Binding seen in cells or lysates may run through a third protein. Some binding calls cover weakened binding; strength is not graded here.

The chains behind the UniProt entries cited, without tags or fusion partners.
UniProt Q9NYF8: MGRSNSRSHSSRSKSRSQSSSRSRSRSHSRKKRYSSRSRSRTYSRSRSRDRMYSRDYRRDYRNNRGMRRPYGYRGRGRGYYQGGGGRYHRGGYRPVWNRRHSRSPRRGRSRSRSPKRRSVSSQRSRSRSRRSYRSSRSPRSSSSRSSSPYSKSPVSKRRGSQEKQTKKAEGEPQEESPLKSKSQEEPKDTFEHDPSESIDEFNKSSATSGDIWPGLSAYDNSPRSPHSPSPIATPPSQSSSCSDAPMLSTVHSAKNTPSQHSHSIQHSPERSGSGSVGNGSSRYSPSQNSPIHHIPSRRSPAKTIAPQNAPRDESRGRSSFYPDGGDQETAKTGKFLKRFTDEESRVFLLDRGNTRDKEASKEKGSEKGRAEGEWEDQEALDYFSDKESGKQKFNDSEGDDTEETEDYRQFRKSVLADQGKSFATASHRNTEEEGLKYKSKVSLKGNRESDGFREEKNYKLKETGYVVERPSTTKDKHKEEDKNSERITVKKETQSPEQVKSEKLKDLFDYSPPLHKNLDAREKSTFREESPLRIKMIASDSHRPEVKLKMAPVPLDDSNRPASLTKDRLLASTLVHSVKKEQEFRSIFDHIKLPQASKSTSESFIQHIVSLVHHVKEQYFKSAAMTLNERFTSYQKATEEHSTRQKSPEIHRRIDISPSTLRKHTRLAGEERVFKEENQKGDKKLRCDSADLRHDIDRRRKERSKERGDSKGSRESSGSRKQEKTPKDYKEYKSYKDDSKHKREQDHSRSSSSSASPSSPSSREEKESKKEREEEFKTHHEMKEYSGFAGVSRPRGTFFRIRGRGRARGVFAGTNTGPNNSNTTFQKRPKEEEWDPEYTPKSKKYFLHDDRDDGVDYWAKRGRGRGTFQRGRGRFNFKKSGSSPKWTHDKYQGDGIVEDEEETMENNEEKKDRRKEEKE
UniProt Q9GZT9: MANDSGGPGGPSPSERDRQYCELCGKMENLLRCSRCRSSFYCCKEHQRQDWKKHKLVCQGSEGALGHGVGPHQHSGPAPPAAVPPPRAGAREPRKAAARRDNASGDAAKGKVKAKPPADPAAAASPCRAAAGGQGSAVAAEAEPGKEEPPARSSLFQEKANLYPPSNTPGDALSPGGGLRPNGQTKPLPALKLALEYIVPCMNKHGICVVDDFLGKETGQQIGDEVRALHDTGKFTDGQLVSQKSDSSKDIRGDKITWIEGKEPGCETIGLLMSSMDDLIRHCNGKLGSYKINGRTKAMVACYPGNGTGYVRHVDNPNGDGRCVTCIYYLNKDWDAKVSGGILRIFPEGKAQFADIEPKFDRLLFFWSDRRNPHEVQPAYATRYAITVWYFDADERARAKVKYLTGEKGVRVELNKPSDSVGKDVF

Target: Bcl-2-associated transcription factor-1 (BCLAF1) (human (in 293T and Hep3B cells; endogenous or transfected not stated)) (UniProt Q9NYF8)
Experiment: co-IP; cell lysate, cell line not stated; which protein was precipitated not stated; Western blot

prolyl hydroxylase domain protein 2 (PHD2) (from UniProt Q9GZT9 1-426)
binding: binds
